According to patent publication US4968679A, “8-substituted 2-aminotetralins” (Bayer Aktiengesellschaft, priority 1986, dated 1990):
At least one compound was matched to its structure with a doubt left.

Molecular target: 5-hydroxytryptamine receptors of the sub-type 1 (5-HT1 receptor)
Test: Affinity to the 5-HT1 receptor: receptor binding studies using calf hippocampus membrane preparations, 3H-serotonin as radioactively labelled ligand
Details: calf hippocampus membranes; 3H-serotonin radioligand
Description: In Table 1, as an example, the high affinity of the compounds according to the invention to 5-hydroxytryptamine receptors of the sub-type 1 is shown. The values specified are data which were determined from receptor binding studies using calf hippocampus membrane preparations. 3 H-serotonin was used for this purpose as radioactively labelled ligand.

CCCN(CCC)C1CCc2cccc(OCCNS(C)(=O)=O)c2C1 (stereo not shown) [Example 25, 2-Dipropylamino-8-(2-methanesulphonamido-ethoxy)-1,2,3,4-tetrahydronaphthal]
Ki: 13 nM
